Where a sequence shows no end group, the ends are not given.
Experiment: general procedure: Fmoc solid-phase peptide synthesis; RAPP AM-Rink Amide resin (H40023 Polystyrene AM RAM, Rapp polymere GmbH); DIC/Oxyma pure; PyBOP/DIEA for side-chain extension
Settings: whole synthesis

Q: What does the source list for IVLSLDVPIGLLQILLEQEKQEKEKQQAKTNAQILAQV?
A: final HPLC purity (analytical reversed-phase HPLC): >99%; isolated yield (purified yield): 15-20%
